Measurements from patent US4421768A, “Fluorinated diamino-heptene and-heptyne derivatives” (Merrell Toraude et Compagnie, priority 1982, dated 1983).
Counter-ions that a name gives are not always drawn. At least one structure is not confirmed: it was looked up by name or label, or the drawing left a doubt.

Target: T1, Ornithine decarboxylase (ODC) (Rattus norvegicus, UniProt P09057)
T1 construct: prepared from the livers of rats which have been injected with thioacetamide; from tissue; host or cells: liver of thioacetamide-injected rats, purified about ten fold by acid treatment at pH 4.6
T1 sequence (P09057 1-461): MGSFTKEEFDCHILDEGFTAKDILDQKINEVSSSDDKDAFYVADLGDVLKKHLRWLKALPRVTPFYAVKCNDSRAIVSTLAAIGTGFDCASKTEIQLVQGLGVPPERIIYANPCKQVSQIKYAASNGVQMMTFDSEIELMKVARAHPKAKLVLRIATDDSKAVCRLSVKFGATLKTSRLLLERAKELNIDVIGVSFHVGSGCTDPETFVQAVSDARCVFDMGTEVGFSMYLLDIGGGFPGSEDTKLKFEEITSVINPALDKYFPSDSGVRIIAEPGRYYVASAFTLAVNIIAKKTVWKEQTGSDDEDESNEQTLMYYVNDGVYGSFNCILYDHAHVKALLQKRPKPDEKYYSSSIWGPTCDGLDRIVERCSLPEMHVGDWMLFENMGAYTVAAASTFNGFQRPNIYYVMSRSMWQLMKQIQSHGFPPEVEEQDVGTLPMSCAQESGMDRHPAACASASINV
Assay: In vitro inhibition of ornithine decarboxylase (ODC) prepared from livers of thioacetamide-injected rats (time-dependent inactivation, 14CO2 release)
Type: biochemical
Conditions: rat liver ODC, 37°, pH 7.1
Method: Ornithine decarboxylase (ODC) is prepared from the livers of rats which have been injected with thioacetamide (150 mg/kg of body weight) 18 hrs before sacrifice, and is purified about ten fold by acid treatment at pH 4.6 as described by Ono et al (Biochem. Biophys. Acta 284, 285 (1972)). The stock solution of ODC is comprised of protein (16 mg/mL), sodium phosphate buffer (30 mM, pH 7.1), dithiothreitol (5 mM) and pyridoxal phosphate (0.1 mM). The specific activity of this stock solution is 0.12 nmol of CO2 /min per mg of protein. For a typical experiment 320 μl of this stock solution are mixed at time 0 with 80 μl of a solution of the inhibitor in water and incubated at 37°. At different times 50 μl aliquots are transferred into a 1-mL assay medium containing sodium phosphate (30 mM, pH 7.1), dithiothreitol (5 mM), pyridoxal phosphate (0.1 mM), L-ornithine (0.081 μmol), and DL-[1-^14 C] ornithine (0.043 μmol, 58 Ci/mol, Amersham) in a closed vessel in which a filter paper moistered with 50 μl hyamine hydroxide (1 M) is fitted. The reaction is allowed to proceed for 60 min at 37° C. and then terminated by addition of 0.5 ml of 40% trichloroacetic acid. […]

## C#CC(N)CCC(N)C(F)F (centres unmarked) [Example 2, 1,1-DIFLUORO-2,5-DIAMINO-6-HEPTYNE, DIHYDROCHLORIDE]
Infinite concentration of inhibitor, method of Kitz and Wilson
  T50 (.tau.50, half-life at infinite concentration of inhibitor): 3.7 min
Inhibitor 10 μM
  t1/2 (half-life at 10 μM): > 3.33 h
